Data as given in publication PMC6427010.
These are yes or no findings as the source states them, for the method shown. Binding seen in cells or lysates may run through a third protein. Some entries that bind do so weakly or less than the wild type.

Sequences of proteins named here, by UniProt entry; tags and fusion partners are left off. Residues count along the entry.
UniProt P30561, residues 10-848: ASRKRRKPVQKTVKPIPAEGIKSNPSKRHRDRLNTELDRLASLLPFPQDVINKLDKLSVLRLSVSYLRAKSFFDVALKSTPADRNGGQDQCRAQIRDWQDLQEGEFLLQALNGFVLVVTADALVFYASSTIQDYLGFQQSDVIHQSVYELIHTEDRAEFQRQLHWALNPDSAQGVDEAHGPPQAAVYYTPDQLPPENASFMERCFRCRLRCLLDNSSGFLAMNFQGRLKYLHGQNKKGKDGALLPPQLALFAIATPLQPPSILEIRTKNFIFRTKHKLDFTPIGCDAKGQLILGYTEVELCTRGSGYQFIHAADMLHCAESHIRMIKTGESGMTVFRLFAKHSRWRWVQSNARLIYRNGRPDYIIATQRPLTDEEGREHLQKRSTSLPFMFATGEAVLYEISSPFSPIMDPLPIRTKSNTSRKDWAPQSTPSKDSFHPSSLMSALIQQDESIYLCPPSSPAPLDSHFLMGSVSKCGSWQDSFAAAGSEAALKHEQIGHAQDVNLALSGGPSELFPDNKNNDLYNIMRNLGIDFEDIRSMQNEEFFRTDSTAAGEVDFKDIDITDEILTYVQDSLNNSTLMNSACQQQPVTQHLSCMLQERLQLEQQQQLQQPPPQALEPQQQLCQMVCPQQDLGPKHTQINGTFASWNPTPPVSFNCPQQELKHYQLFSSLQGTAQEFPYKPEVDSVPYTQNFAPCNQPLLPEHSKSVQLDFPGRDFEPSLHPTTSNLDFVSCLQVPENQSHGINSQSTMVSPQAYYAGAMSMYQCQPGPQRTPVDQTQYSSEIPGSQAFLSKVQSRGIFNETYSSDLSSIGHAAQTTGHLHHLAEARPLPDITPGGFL

Molecular target: aryl hydrocarbon receptor (not stated (endogenous in pre-osteoclasts: mouse RAW264.7 cells or rat BMMs)) (UniProt P30561)
Experiment: co-IP; endogenous proteins of pre-osteoclasts, cells with or without tetrandrine or DIM; NP40 lysis buffer; immunoprecipitated with 1 ug of primary antibody against AhR or c-Cbl, protein A/G agarose, 4 h at 4 °C; beads washed three times with NP40 lysis buffer

binding: binds
Substance: E3 ubiquitin ligase c-Cbl (from UniProt P22682 1-913)
